According to patent US20250214932A1, “T-TYPE CALCIUM CHANNEL MODULATORS COMPRISING AN AZASPIRONONANE CORE AND METHODS OF USE THEREOF” (Praxis Precision Medicines, Inc., priority 2022, published 2025):
The name of at least one read-out is uncertain.

Chains of the proteins cited; added tags and fusions are not shown. Lines headed by an entry give the natural chain unless they say otherwise; changes in a name come on top.
UniProt O43497: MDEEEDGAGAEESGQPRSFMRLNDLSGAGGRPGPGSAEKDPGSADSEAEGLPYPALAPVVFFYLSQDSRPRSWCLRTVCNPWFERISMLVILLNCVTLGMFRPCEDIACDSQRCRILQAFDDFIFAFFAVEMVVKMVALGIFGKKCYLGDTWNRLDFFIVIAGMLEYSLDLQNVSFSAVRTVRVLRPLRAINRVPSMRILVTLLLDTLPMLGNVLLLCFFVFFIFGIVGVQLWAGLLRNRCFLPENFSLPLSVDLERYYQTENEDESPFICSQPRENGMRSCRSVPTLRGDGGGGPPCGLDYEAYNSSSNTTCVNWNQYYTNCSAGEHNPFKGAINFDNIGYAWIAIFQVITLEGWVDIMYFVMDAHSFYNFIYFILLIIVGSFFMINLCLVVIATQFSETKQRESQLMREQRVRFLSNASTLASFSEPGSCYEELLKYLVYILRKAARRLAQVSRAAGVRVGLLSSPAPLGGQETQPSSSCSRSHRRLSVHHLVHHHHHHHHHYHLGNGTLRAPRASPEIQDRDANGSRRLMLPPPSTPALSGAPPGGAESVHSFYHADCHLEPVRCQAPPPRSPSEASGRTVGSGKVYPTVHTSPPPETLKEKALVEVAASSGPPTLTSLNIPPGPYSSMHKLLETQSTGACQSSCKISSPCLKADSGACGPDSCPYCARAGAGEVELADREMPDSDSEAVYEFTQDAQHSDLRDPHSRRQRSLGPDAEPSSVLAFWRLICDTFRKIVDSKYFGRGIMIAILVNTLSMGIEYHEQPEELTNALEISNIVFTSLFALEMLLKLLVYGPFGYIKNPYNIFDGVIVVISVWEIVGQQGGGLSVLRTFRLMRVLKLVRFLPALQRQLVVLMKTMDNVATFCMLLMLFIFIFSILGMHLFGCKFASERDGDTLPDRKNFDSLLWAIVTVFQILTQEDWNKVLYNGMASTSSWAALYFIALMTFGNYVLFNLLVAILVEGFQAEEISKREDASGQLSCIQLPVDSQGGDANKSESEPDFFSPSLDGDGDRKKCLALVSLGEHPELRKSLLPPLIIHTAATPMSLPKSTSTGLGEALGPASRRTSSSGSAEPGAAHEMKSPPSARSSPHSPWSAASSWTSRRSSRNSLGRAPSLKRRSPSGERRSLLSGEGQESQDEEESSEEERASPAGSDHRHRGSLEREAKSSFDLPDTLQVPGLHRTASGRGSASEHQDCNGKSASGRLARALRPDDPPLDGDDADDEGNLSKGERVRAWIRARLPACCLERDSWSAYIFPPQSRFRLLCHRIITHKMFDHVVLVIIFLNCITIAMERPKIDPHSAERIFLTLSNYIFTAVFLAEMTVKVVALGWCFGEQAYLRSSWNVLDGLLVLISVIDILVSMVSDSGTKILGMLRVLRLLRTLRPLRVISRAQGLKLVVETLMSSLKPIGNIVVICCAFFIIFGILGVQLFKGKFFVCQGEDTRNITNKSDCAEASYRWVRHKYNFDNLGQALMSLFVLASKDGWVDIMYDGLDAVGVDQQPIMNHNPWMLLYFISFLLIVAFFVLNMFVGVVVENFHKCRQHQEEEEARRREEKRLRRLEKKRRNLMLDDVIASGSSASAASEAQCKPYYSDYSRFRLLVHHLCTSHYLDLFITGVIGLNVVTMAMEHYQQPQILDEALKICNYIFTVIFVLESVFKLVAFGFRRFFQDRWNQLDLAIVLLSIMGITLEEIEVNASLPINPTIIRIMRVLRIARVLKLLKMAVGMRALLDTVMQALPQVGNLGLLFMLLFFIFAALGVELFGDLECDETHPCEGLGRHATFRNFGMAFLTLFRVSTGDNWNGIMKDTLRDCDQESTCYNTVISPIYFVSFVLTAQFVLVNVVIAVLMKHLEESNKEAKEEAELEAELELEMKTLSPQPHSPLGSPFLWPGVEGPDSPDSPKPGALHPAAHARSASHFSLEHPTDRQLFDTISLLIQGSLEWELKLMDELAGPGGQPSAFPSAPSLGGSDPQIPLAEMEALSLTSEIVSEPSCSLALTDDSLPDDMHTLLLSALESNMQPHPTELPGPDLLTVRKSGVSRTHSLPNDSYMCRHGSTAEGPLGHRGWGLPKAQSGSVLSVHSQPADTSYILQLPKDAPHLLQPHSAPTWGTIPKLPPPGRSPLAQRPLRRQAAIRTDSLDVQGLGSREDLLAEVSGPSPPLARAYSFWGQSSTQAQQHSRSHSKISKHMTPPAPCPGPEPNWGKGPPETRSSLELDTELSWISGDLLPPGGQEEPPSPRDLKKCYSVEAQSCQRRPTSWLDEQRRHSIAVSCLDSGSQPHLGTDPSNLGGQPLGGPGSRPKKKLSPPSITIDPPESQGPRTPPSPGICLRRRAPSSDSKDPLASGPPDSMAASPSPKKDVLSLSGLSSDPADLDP

Molecular target: Human Cav3.1 (Homo sapiens (Human), UniProt O43497)
Assay: Human Cav3.1 calcium channel patch clamp assay (SyncroPatch 384PE, HEK-293 natClytin/TASK1+Cav3.1 cell line)
Type: cell-based
Details: Testing Conc. 1.25 (unit not given)
Procedure: Pulse generation and data collection were performed with PatchController384 V1.3.0 and DataController384 V1.2.1 (Nanion Technologies). Off-line analysis was performed using Excel and Graphpad Prism (V 8.4.2) with complete data files uploaded to Dotmatics. The access resistance and apparent membrane capacitance were estimated using built-in protocols. Current was recorded in whole cell configuration from a population of cells. The cells were lifted, triturated, and resuspended at 800,000 cells/ml. The cells were allowed to recover in the cell hotel prior to experimentation. Currents were recorded at room temperature. […] Current amplitude (pA) was measured in the peak 1 and 2. The average of last 3 sweeps of each liquid period (vehicle, compound under investigation, full block) was calculated. […]
Pulse generation and data collection were performed with PatchController384 V1.3.0 and DataController384 V1.2.1 (Nanion Technologies). […] Current was recorded in whole cell configuration from a population of cells.
The cells were lifted, triturated, and resuspended at 800,000 cells/ml. […] Currents were recorded at room temperature. […]
The compound plate was created at 2× concentrated in the extracellular solution. […] Current amplitude (pA) was measured in the peak 1 and 2. The average of last 3 sweeps of each liquid period (vehicle, compound under investigation, full block) was calculated. […]

| SMILES | Single Point Data % Inhibition |
| --- | --- |
| CC(C)(C)NC(=O)CN1CC2(CCC(C(=O)Nc3ccc(Cl)cc3)CC2)C1 [Example 3] | 59.065% |
| CC(C)(C)NC(=O)CN1CC2(CCC(C(=O)Nc3cc(Cl)cc(Cl)c3)CC2)C1 [Example 1, 2-(2-(tert-butylamino)-2-oxoethyl)-N-(3,5-dichlorophenyl)-2-azaspiro[3.5]nonane-7-carboxamide] | 98.819% |
